No constants are given. Whether binding was seen depends on the method and setting. Binding seen in cells or lysates may run through a third protein. Some results given as binding are weak or reduced against the parent protein; the word gives no strength. For part of these data: Sequences can lack the tags named with a protein.

By UniProt entry, the sequences of proteins in these tests, tags left out.
UniProt Q8N122: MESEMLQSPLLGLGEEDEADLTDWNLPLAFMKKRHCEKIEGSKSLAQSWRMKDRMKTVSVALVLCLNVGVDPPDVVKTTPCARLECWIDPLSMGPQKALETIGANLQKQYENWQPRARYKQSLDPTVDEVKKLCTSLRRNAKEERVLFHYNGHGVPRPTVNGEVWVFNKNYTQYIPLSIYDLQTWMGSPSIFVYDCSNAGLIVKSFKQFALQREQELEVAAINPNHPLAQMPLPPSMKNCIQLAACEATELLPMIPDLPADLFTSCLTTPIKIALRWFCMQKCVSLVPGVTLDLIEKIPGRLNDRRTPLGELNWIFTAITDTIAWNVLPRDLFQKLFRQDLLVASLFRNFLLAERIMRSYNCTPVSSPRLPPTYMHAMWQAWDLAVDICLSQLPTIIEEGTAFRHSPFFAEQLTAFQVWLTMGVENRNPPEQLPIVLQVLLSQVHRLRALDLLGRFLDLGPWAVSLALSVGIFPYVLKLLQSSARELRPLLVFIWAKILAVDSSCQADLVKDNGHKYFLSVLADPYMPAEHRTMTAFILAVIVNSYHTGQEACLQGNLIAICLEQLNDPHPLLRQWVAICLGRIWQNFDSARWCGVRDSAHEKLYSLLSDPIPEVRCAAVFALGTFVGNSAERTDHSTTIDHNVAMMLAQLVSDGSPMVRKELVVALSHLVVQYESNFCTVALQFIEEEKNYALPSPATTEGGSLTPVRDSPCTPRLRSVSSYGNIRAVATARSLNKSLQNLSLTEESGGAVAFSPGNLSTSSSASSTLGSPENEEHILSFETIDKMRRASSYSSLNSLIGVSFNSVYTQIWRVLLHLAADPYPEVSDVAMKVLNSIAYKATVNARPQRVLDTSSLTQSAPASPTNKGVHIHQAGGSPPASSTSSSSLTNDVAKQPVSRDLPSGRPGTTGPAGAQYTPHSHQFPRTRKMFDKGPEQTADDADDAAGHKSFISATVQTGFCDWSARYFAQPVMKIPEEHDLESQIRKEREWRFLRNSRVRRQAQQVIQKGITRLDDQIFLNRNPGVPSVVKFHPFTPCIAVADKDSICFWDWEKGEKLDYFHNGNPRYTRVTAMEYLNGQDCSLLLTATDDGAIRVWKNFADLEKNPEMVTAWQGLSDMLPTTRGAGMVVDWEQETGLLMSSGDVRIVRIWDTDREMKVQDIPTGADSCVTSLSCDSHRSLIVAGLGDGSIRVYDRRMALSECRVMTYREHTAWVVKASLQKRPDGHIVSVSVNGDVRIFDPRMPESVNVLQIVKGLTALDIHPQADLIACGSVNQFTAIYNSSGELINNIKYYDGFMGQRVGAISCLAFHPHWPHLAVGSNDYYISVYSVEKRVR

Assay [1] deals with T1, Ubiquitin-specific protease 22 (endogenous, SNU-449 cells) (human (endogenous in SNU-449)) (UniProt Q9UPT9).
T1 sequence: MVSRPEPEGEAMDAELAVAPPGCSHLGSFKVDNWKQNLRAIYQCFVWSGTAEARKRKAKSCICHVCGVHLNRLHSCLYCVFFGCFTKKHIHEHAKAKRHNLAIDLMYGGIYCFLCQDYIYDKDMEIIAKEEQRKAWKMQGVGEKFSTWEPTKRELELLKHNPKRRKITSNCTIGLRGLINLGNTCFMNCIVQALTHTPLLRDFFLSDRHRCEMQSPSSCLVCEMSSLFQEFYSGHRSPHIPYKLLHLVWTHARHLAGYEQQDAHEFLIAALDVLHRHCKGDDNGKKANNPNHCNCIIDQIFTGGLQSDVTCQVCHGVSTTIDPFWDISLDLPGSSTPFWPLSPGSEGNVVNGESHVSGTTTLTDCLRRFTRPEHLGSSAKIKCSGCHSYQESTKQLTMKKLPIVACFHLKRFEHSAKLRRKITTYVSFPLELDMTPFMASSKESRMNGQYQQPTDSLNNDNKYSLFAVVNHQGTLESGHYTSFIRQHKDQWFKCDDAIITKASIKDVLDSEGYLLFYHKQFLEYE
The assay is described as follows: co-IP; endogenous proteins in SNU-449 cell lysates; lysates precleaned with IgG and Protein A+G agarose, immunoprecipitated with antibody (anti-USP22 for the mTORC1 components) and agarose at 4°C for 2 h, western blot.

For assay [2], the target named is T2, Flag-tagged USP22 (UniProt Q9UPT9).
T2 sequence: T1 sequence
Description: co-IP; HEK293T cells transfected with Flag-tagged USP22 and Myc-tagged FKBP12 plasmids; whole cell extracts immunoprecipitated with an anti-Myc or anti-Flag antibody, western blot. A general note: Immunoblotting shows a protein as a band on a membrane.

With “FK506-binding protein 12 (endogenous, SNU-449 cells) (from UniProt P62942 1-108)”, the binding entry in assay [1] was “binds”. In the case of “Myc-tagged FKBP12 (from UniProt P62942 1-108)”, the binding entry in assay [2] is listed as “binds”. On to “regulatory-associated protein of mTOR (endogenous, SNU-449 cells) (from UniProt Q8N122 1-1335)”, for which the binding entry in assay [1] is “no binding”.

Values taken from article PMC10691294.
